Data taken from patent US20260176378A1.
No constants are given. Whether binding was seen depends on the method and setting. A result given as binding can be weak or reduced; the word gives no strength.

B1: X81-B01 (antibody, V domains shown)
VH: EVQLLESGGGLVQPGGSLRLSCAASGFTFSHYLMTWVRQAPGKGLEWVSYISPSGGHTIYADSVKGRFTISRDNSKNTLYLQMNSLRAEDTAVYYCARVARGIAARSRTSYFDYWGQGTLVTVSS
VL: EIVLTQSPGTLSLSPGERATLSCRTSQFVNSNYLAWYQQKPGQAPRLLIYGASSRATGIPDRFSGSGSGTDFTLTISRLEPEDFAVYYCQQSSRTPWTFGQGTKVEIK
B2: X67-D03 (antibody, human IgG1, V domains shown)
VH: EVQLLESGGGLVQPGGSLRLSCAASGFTFSAYSMIWVRQAPGKGLEWVSYIRPSGGRTTYADSVKGRFTISRDNSKNTLYLQMNSLRAEDTAVYYCARGGLLLWNRELKSNYFDYWGQGTLVTVSS
VL: DIQMTQSPSSLSAFVGDRVTITCRASQPIDNYLNWYHQKPGKAPKLLIYAASRLQSGVPSRLSGSGFGTDFTLTISSLQPEDFGNYYCQQSYTVPYTFGGGTKVEIR

Biological target: human plasma kallikrein (human)
Assay: Biacore, IgG captured on anti-human Fc, 100 nM pKal

Binder	binding
B1	binds
B2	binds
